Measurements reported in PMC11705064.
These are yes or no findings as the source states them, for the method shown. In cells and extracts the contact can be indirect. Some entries that bind do so weakly or less than the wild type. Tags and fused reporters may be left off the sequences shown.

Molecular target: epidermal growth factor receptor (EGFR) (human (endogenous in HCT-116 and DLD-1)) (UniProt P00533)
Assay: co-IP; lysates of HCT-116 and DLD-1 cells; indicated antibodies and IgG agarose overnight at 4 °C; washed thrice; immunoblotting

binding: binds
B1: solute carrier family 5 (sodium/glucose cotransporter), member 1 (SLC5A1) (protein, UniProt P13866 1-664)
chain: MDSSTWSPKTTAVTRPVETHELIRNAADISIIVIYFVVVMAVGLWAMFSTNRGTVGGFFLAGRSMVWWPIGASLFASNIGSGHFVGLAGTGAASGIAIGGFEWNALVLVVVLGWLFVPIYIKAGVVTMPEYLRKRFGGQRIQVYLSLLSLLLYIFTKISADIFSGAIFINLALGLNLYLAIFLLLAITALYTITGGLAAVIYTDTLQTVIMLVGSLILTGFAFHEVGGYDAFMEKYMKAIPTIVSDGNTTFQEKCYTPRADSFHIFRDPLTGDLPWPGFIFGMSILTLWYWCTDQVIVQRCLSAKNMSHVKGGCILCGYLKLMPMFIMVMPGMISRILYTEKIACVVPSECEKYCGTKVGCTNIAYPTLVVELMPNGLRGLMLSVMLASLMSSLTSIFNSASTLFTMDIYAKVRKRASEKELMIAGRLFILVLIGISIAWVPIVQSAQSGQLFDYIQSITSYLGPPIAAVFLLAIFWKRVNEPGAFWGLILGLLIGISRMITEFAYGTGSCMEPSNCPTIICGVHYLYFAIILFAISFITIVVISLLTKPIPDVHLYRLCWSLRNSKEERIDLDAEEENIQEGPKETIEIETQVPEKKKGIFRRAYDLFCGLEQHGAPKMTEEEEKAMKMKMTDTSEKPLWRTVLNVNGIILVTVAVFCHAYFA
